Measurements reported in PubChem BioAssay AID1259254 (NCATS, 2017).
The deposit covers about 59,000 reagents; shown is a random part of them. About 1,550 of them (2.6%) count as active. 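G2 share is only a proxy for re-replication; each gene was hit by three separate siRNAs, and active genes were retested.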 Raw values are not corrected between plates. A number with no mark means an inactive call. Reagents against one gene are numbered here. Not stated in the record: the amount of reagent.

- Assay: 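Genome-wide screen for genes that prevent DNA re-replication in cancer cells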 (primary screen)
- System: human HCT116 colorectal cancer cells
- Knock-down reagent: single siRNA against human genes
- Timing: 3 days
- Detection: 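Imaged Hoechst DNA stain sorts each cell into a cycle phase by DNA amount; per plate, G2 fraction set to 0% for non-targeting and 100% for GMNN siRNA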
- Scale: G2 robust z-score and G2 cells, % of GMNN control: higher = more G2 cells, more excess DNA replication; raw share of cells in G2: higher = larger share of cells with G2 DNA content
- Hit rule: 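Active siRNAs have a G2 robust z of 5 or more median absolute deviations over the median, which in these data means about 38% or higher of GMNN control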

| gene | siRNA no. | G2 robust z-score | G2 cells, % of GMNN control | raw share of cells in G2 (%) |
| --- | --- | --- | --- | --- |
| BEND4 (BEN domain containing 4) | 1 | 0.958 | 9.71 | 7.1 |
| BEND4 (BEN domain containing 4) | 2 | -0.318 | 0.733 | 3.72 |
| BEND4 (BEN domain containing 4) | 3 | -0.408 | 0.0968 | 4.68 |
| ATG101 (autophagy related 101) | 1 | 0.0825 | 3.55 | 6.13 |
| ATG101 (autophagy related 101) | 2 | 1.02 | 10.1 | 9.15 |
| ATG101 (autophagy related 101) | 3 | 0.718 | 8.02 | 4.81 |
| CD244 (CD244 molecule) | 1 | 0.735 | 8.14 | 7.25 |
| CD244 (CD244 molecule) | 2 | -0.336 | 0.6 | 4.03 |
| CD244 (CD244 molecule) | 3 | 2.97 | 23.8 | 16.8 |
| RAB7A (RAB7A, member RAS oncogene family) | 1 | 2.46 | 20.2 | 14.1 |
| RAB7A (RAB7A, member RAS oncogene family) | 2 | 0.739 | 8.17 | 7.17 |
| RAB7A (RAB7A, member RAS oncogene family) | 3 | -0.85 | -3.02 | 3.14 |
| CHCHD5 (coiled-coil-helix-coiled-coil-helix domain containing 5) | 1 | -0.273 | 1.05 | 2.72 |
| CHCHD5 (coiled-coil-helix-coiled-coil-helix domain containing 5) | 2 | 0.378 | 5.63 | 5.98 |
| CHCHD5 (coiled-coil-helix-coiled-coil-helix domain containing 5) | 3 | 0.284 | 4.97 | 4.93 |
| SIGLECL1 (SIGLEC family like 1) | 1 | 0.0751 | 3.5 | 4.92 |
| SIGLECL1 (SIGLEC family like 1) | 2 | 4.45 | 34.3 | 16.3 |
| SIGLECL1 (SIGLEC family like 1) | 3 | 0.573 | 7 | 5.4 |
| MNDA (myeloid cell nuclear differentiation antigen) | 1 | 0.43 | 6 | 5.84 |
| MNDA (myeloid cell nuclear differentiation antigen) | 2 | -0.493 | -0.505 | 4.61 |
| MNDA (myeloid cell nuclear differentiation antigen) | 3 | 0.566 | 6.95 | 5.63 |
| ASCC1 (activating signal cointegrator 1 complex subunit 1) | 1 | -0.814 | -2.76 | 4.7 |
| ASCC1 (activating signal cointegrator 1 complex subunit 1) | 2 | -0.806 | -2.7 | 2.76 |
| ASCC1 (activating signal cointegrator 1 complex subunit 1) | 3 | 0.351 | 5.44 | 6.25 |
| TENM1 (teneurin transmembrane protein 1) | 1 | 0.139 | 3.94 | 7.11 |
| TENM1 (teneurin transmembrane protein 1) | 2 | -0.511 | -0.627 | 3.68 |
| TENM1 (teneurin transmembrane protein 1) | 3 | 0.167 | 4.14 | 4.91 |
| KCNAB2 | 1 | -0.472 | -0.353 | 5.16 |
| KCNAB2 | 2 | 0.758 | 8.3 | 7.59 |
| KCNAB2 | 3 | 2.28 | 19 | 11.8 |
| LINC00574 (long independently transcribed non-coding RNA 574) | 1 | -0.127 | 2.08 | 5.31 |
| LINC00574 (long independently transcribed non-coding RNA 574) | 2 | 0.678 | 7.74 | 7.69 |
| LINC00574 (long independently transcribed non-coding RNA 574) | 3 | -1.02 | -4.2 | 1.23 |
| ZNF833P (zinc finger protein 833, pseudogene) | 1 | 2.13 | 18 | 10.4 |
| ZNF833P (zinc finger protein 833, pseudogene) | 2 | -0.764 | -2.41 | 2.56 |
| ZNF833P (zinc finger protein 833, pseudogene) | 3 | -1.11 | -4.87 | 2.77 |
| ANHX (anomalous homeobox) | 1 | -0.113 | 2.18 | 4.6 |
| ANHX (anomalous homeobox) | 2 | -0.282 | 0.983 | 3.59 |
| ANHX (anomalous homeobox) | 3 | -0.0504 | 2.61 | 3.87 |
| TEX26 (testis expressed 26) | 1 | 0.727 | 8.08 | 4.18 |
| TEX26 (testis expressed 26) | 2 | -0.124 | 2.1 | 4.93 |
| TEX26 (testis expressed 26) | 3 | -0.425 | -0.0228 | 3.32 |
| IER2 (immediate early response 2) | 1 | 2.86 | 23.1 | 15.8 |
| IER2 (immediate early response 2) | 2 | -0.089 | 2.34 | 4.92 |
| IER2 (immediate early response 2) | 3 | -0.155 | 1.88 | 4.09 |
| ACTRT2 (actin related protein T2) | 1 | -0.869 | -3.15 | 4.46 |
| ACTRT2 (actin related protein T2) | 2 | 5.32 (active) | 40.4 | 19.5 |
| ACTRT2 (actin related protein T2) | 3 | -0.832 | -2.89 | 3.49 |
| ZBED10P (zinc finger BED-type containing 10, pseudogene) | 1 | -0.586 | -1.15 | 3.63 |
| ZBED10P (zinc finger BED-type containing 10, pseudogene) | 2 | -0.631 | -1.47 | 2.89 |
| ZBED10P (zinc finger BED-type containing 10, pseudogene) | 3 | 0.224 | 4.54 | 3.15 |
| DHX9-AS1 (DHX9 antisense RNA 1) | 1 | 1.56 | 13.9 | 9.03 |
| DHX9-AS1 (DHX9 antisense RNA 1) | 2 | 0.463 | 6.23 | 5.53 |
| DHX9-AS1 (DHX9 antisense RNA 1) | 3 | 0.454 | 6.16 | 5 |
| ACSL6 (acyl-CoA synthetase long chain family member 6) | 1 | -0.961 | -3.8 | 2.89 |
| ACSL6 (acyl-CoA synthetase long chain family member 6) | 2 | 6.38 (active) | 47.9 | 25.6 |
| ACSL6 (acyl-CoA synthetase long chain family member 6) | 3 | -0.886 | -3.27 | 2.75 |
| ATP6V0E1 (ATPase H+ transporting V0 subunit e1) | 1 | -0.146 | 1.94 | 5.43 |
| ATP6V0E1 (ATPase H+ transporting V0 subunit e1) | 2 | -0.496 | -0.521 | 4.15 |
| ATP6V0E1 (ATPase H+ transporting V0 subunit e1) | 3 | 0.166 | 4.13 | 4.74 |
| TAAR6 (trace amine associated receptor 6) | 1 | 0.156 | 4.06 | 7.3 |
| TAAR6 (trace amine associated receptor 6) | 2 | -0.949 | -3.71 | 3.22 |
| TAAR6 (trace amine associated receptor 6) | 3 | 0.27 | 4.87 | 4.76 |
| ALPK3 (alpha kinase 3) | 1 | 0.205 | 4.41 | 6.96 |
| ALPK3 (alpha kinase 3) | 2 | -0.862 | -3.09 | 4.07 |
| ALPK3 (alpha kinase 3) | 3 | -0.699 | -1.95 | 3.06 |
| FAM124B (family with sequence similarity 124 member B) | 1 | 1.06 | 10.4 | 8.78 |
| FAM124B (family with sequence similarity 124 member B) | 2 | -0.418 | 0.0279 | 4.32 |
| FAM124B (family with sequence similarity 124 member B) | 3 | -0.453 | -0.222 | 2.32 |

Entries listed so far with an active call (2):
| gene | siRNA no. | G2 robust z-score | G2 cells, % of GMNN control | raw share of cells in G2 (%) |
| --- | --- | --- | --- | --- |
| ACTRT2 (actin related protein T2) | 2 | 5.32 (active) | 40.4 | 19.5 |
| ACSL6 (acyl-CoA synthetase long chain family member 6) | 2 | 6.38 (active) | 47.9 | 25.6 |
